Data: patent US5700640A, “Inducers of gamma globin gene expression and screening assays therefor” (priority 1994, dated 1997)

Test system: 28S ribosomal RNA
Assay: Northern hybridization of 28S ribosomal RNA (standardization) in treated K562 cells
Type: cell-based, human
Conditions: 5 mM, 96 hours

Row | Compound | Raw Value, 28S RNA
1 | CCCC(=O)O [BA, butyric acid] | 6.19 × 10^6
2 | CC(C)CC(=O)O [IVA, isovaleric acid] | 1.85 × 10^6
3 | CCCCC(=O)O [VA, valeric acid] | 1.66 × 10^6
